Laboratory results as given in PubChem BioAssay AID2685 (National Center for Advancing Translational Sciences (NCATS), 2010).
The whole screen tested about 320,000 compounds, of which about 2,100 (0.66%) were called active. The shares of active, inactive and inconclusive entries below differ from those in the screen. Calls come from the whole dose curve; as a rule, active = well fitted inhibition curve with a large enough effect in the signal ratio, with a control signal flat (not every such curve was filed as active); inconclusive = small, poorly fitted or top-dose-only effect, or effect the other way, or a change in a side signal; inactive = flat fitted curve, though single readings scatter; the % refers to the signal ratio. Where the call is inconclusive, the potency comes from a doubtful curve fit.

Assay: qHTS Assay for Lipid Storage Modulators in Drosophila S3 Cells
Conditions: BODIPY lipid droplet fluorescence, 18-24 h, cells fed with added oleic acid; lipid storage change, negative = inhibition: at 46.1 µM (top of the series) unless noted
Method in brief: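 Drosophila S3 cells got compounds at several concentrations plus oleic acid (400 uM solution). Laser-scanning cytometry with 488 nm excitation read lipid droplets at 500-530 nm and cells at 575-640 nm. Percent activity was relative to 20 uM Triacsin C.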
% is set by controls: 0 for no effect and ±100 for the full control effect; potency is the fitted concentration of half-maximal effect.

Lipid storage change, negative = inhibition, inactive:
Cn1cc(Cl)c(C(=O)Nc2nc3ccc([N+](=O)[O-])cc3s2)n1

Lipid storage change, negative = inhibition, inconclusive:
O=C(O)C(Cc1ccccc1)n1c(=S)[nH]c2ccccc2c1=O (stereo not given) 18%, CCOc1ccc(S(=O)(=O)Nc2ccc(C(=O)N/N=C/c3c(C)nn(-c4ccccc4)c3N3CCCC3)cc2)cc1 -37.5%, COc1cccc(NC(=O)CCSc2ccc(C)cc2)c1 9.13%, CCN(C(=O)CSc1nnc(-c2ccccc2C)n1C)c1c(N)n(Cc2ccccc2)c(=O)[nH]c1=O, CN(C1CCS(=O)(=O)C1)S(=O)(=O)c1ccc(N2CCCC2=O)cc1 (stereo not given) -8.89%, C/C(=N\NC(=O)c1cccc(S(=O)(=O)N2CCCC2)c1)c1cccs1 27.6%, CCCc1cc(=O)[nH]c(SCC(=O)N2CCOCC2)n1 32.3%, COc1cccc(C(=O)NCCNC(=O)c2ccc(C)nc2)c1 8.55%, NCCCC[C@H]1CNC(=O)C(=O)N1CC1CCCCC1 34.6%, CCC(=O)Nc1ccc(NC(=O)c2c(C)nc3ccccn23)cc1 21.5%, Cc1ccc(Cl)cc1Nc1nc(-c2sc(NC(=O)c3cccc(Cl)c3)nc2C)cs1 -29.5%, FC(F)(F)c1ccccc1NC(=S)N1CCN(Cc2ccc3c(c2)OCO3)CC1 44.6%, CC(=O)OC1CC(C)(C)N(OC(=O)CCCN2C(=O)c3ccccc3C2=O)C(C)(C)C1 -14.2%, CCCc1cc(=O)[nH]c(SCC(=O)Nc2ccc(OCc3ccccc3)cc2)n1 -41.5%, O=C(CN1CCN(Cc2ccc3c(c2)OCO3)CC1)Nc1cc(S(=O)(=O)N2CCCC2)ccc1Cl 54.6%, COCCCn1cnc2c(c1=O)c1nc3ccccc3nc1n2-c1ccccc1 18.3%, Oc1ccc(/C=N/n2c(-c3ccccc3)n[nH]c2=S)cc1Br 43.4%, CCCOc1ccc(-c2nc(OC)c3ccccc3n2)cc1 -34.4%, COC(=O)C1=C(C)N(CC2CC2)C(=NCc2cccc(Cl)c2)N[C@H]1c1ccccc1 17.8%, O=C1Nc2ccccc2N(O)N1c1ccc(Cl)cc1 -2.33%, COc1cccc(C(=O)NN2CC(O)=C(c3nc(C)cs3)C2=N)c1 3.4%, CCCCCCCN1C(Nc2ccccc2)=NC[C@@H]1Cc1ccccc1 -6.15%, OCCC1CN(Cc2cccn2-c2ncccn2)CCN1Cc1ccccc1 (stereo not given) -15.8%, COc1ccccc1C(=O)Nc1ccccc1C(=O)N1CCCC1 22.9%, CCn1c(SCc2ccc(OC)c(F)c2)nc2ccccc2c1=O 50.8%, NC(=O)c1cc(Cl)ccc1OCC(=O)N1CCCc2ccccc21 0.831%, COc1ccc(-c2c(C#N)c(N)nc(Sc3ccc(Cl)cc3)c2C#N)cc1 3%

Potency, active:
O=C(O)c1cccc(Nc2ncnc3ccccc23)c1 25.9 µM

Potency, inconclusive:
Cc1ccccc1C(=O)/C=C1/SCC(=O)N1C 0.291 µM [falling, partial curve, poor fit], CC(CN1CCCC1)OC(=O)c1ccccc1Cl (stereo not given) 18.4 µM [activator, partial curve], CCS(=O)(=O)c1ccc2oc(Nc3ccc(OC)c(OC)c3)nc2c1 6.51 µM [activator, partial curve], CC(C)(C)c1ccc(C(=O)Nc2nnc(C3=COCCO3)o2)cc1 23.1 µM [falling, single point], CNC(=O)c1ccsc1NC(=O)CCS(=O)(=O)c1ccc(C)cc1 0.116 µM [falling, full curve, poor fit], O=C(Nc1ccc(Oc2ccccc2)cc1)c1cnc2n(c1=O)CCS2 2.06 µM [activator, single point], O=C(CN1CCN(c2ncccn2)CC1)N1CCCc2c1c(=O)oc1ccc(O)cc21 20.6 µM [falling, partial curve], CC(=O)Nc1ccc(C(=O)NNC(=O)c2ccccc2-n2cccc2)cc1 29.1 µM [falling, single point], Cc1ccc(/C=C2\SC(=S)N(CCCC(=O)Nc3ccccc3C(=O)O)C2=O)cc1 0.82 µM [activator, full curve], COc1ccc(N(C(=O)c2ccc(S(=O)(=O)N3CCOCC3)cc2)C2C=CS(=O)(=O)C2)cc1 (stereo not given) 32.6 µM [falling, single point], O=C1c2ccccc2C(=O)N1CCCP(=O)(O)CCc1ccccc1 0.0046 µM [falling, full curve, poor fit]
